# Data: publication PMC7819943, “Rice protein-binding microarrays: a tool to detect cis-acting elements near promoter regions in rice”
# The chains behind the UniProt entries cited, without tags or fusion partners.
# UniProt Q0JBA9, entry or part of it: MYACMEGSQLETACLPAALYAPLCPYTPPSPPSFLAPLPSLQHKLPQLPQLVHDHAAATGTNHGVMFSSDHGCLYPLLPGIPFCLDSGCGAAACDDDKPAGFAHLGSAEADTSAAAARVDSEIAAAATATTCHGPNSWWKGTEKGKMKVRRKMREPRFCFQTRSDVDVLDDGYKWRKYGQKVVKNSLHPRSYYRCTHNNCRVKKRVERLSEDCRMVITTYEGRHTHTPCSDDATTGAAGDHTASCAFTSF
# This is one part of the list.
# Target: OsWRKY34 (Oryza sativa, UniProt Q0JBA9 1-250)
# Assay: protein-binding microarray (RPBM); PBS, 2% BSA, 51.3 ng/ul salmon testes DNA, 50 uM zinc acetate, 200 nM TF, 25 C, 1 h; high values mean tight binding
# Settings: protein: recombinant; tags: N-terminal polyhistidine and DsRed monomer fusion (pET32a); label: CyDye5-dUTP incorporated in the synthesized complementary strand; 3' TTTTT single-stranded linker to array surface; dsDNA, one strand shown
# In short: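 The binding signal for each feature is its fluorescence intensity in arbitrary units. An Axon 4000B scanner was used to read a custom Agilent array that had been made double-stranded with Cy5-dUTP primer extension, blocked with 2% BSA, incubated at 25 °C for 1 h with 200 nM protein in PBS, 2% BSA, salmon testes DNA and 50 µM zinc acetate, and washed. The protein was an N-terminal polyhistidine–DsRed transcription factor fusion from E. coli BL21-CodonPlus, purified on Ni–NTA.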
row,Sequence,binding signal
1,TTTATTTAAATATTTCTTTTCACTTCCTTGCTCACTGACTCGGAGTCACCTAGTGCAG,11000 fluorescence intensity (a.u.)
2,GTCAAGAATGTGCTAAAAAGTCAACGGTGTCAAACAGTTTCGGAGTCACCTAGTGCAG,10600 fluorescence intensity (a.u.)
3,GTACTCGTATTTTGGTCAACTATTTAATTTATCTCTCATTCGGAGTCACCTAGTGCAG,8990 fluorescence intensity (a.u.)
4,CTGTTATTGTACCTGTTCTAATAGCTCACCTTGTTTTACGCGGAGTCACCTAGTGCAG,10800 fluorescence intensity (a.u.)
5,TACCTCACTGCCTTTTGCCTGCCAGGGGATATCTAAGACACGGAGTCACCTAGTGCAG,9250 fluorescence intensity (a.u.)
6,CTTCGTTTTCCTATTTACGACATTACAGGGTTTGTAATCTCGGAGTCACCTAGTGCAG,9130 fluorescence intensity (a.u.)
7,CTGAAGTGAGGGAGGGGAGGAGGTGGTGGTGGTGGGGAAGCGGAGTCACCTAGTGCAG,15600 fluorescence intensity (a.u.)
8,CTCCTCTTCGATCTTGTTGTTCTTCAACGCAGATTTTGTTCGGAGTCACCTAGTGCAG,8460 fluorescence intensity (a.u.)
9,CCTTTCACCCGCCCAAACTCATCCATCCATCGATCGCCCTCGGAGTCACCTAGTGCAG,8560 fluorescence intensity (a.u.)
10,TCACTTCTGCAACCTGGTCAGCCAATTCATCCCGTGCTCACGGAGTCACCTAGTGCAG,10300 fluorescence intensity (a.u.)
11,TCCACCACAGCCACCATCGATCTGCAGCCAGCCAGCCAACCGGAGTCACCTAGTGCAG,9130 fluorescence intensity (a.u.)
12,CCTCGACCTCCACCGCCGCATCCTCGCGCTCGTCCGCGAGCGGAGTCACCTAGTGCAG,10200 fluorescence intensity (a.u.)
13,ACATGATTATATTCCGATTAAAACCATTAGTACTTCGTCTCGGAGTCACCTAGTGCAG,8440 fluorescence intensity (a.u.)
14,TCCTTTCTTCAGGATCGCAGCATTTTGCTGTCATTATTTCCGGAGTCACCTAGTGCAG,8710 fluorescence intensity (a.u.)
15,GAAGTGTTGTGGTTACAAATTAGTTTTTGACTTTTATCTCCGGAGTCACCTAGTGCAG,10400 fluorescence intensity (a.u.)
16,TTACTGCCGCCGCATCCTCGCCGGAGCCGCTTCTTCTCCGCGGAGTCACCTAGTGCAG,10900 fluorescence intensity (a.u.)
17,TTCCGAATTCTGCACCGGCCATCATATGCTGGGGCGGGCGCGGAGTCACCTAGTGCAG,9390 fluorescence intensity (a.u.)
18,CTCCTCTACTAGCTCGTCTCCATCTCTTCTACTCGTCCAGCGGAGTCACCTAGTGCAG,8260 fluorescence intensity (a.u.)
19,TCCCTTCTTACAGGCCAACCTCGCAAAGTTGCTGCTCCTCCGGAGTCACCTAGTGCAG,10200 fluorescence intensity (a.u.)
20,CTCCCACCGCTCTCTCTCTCTCTCTCTCTCTCTCTCTCTCCGGAGTCACCTAGTGCAG,11200 fluorescence intensity (a.u.)
21,ACTCATCGCCACGTTGCTAATTTAGCTGACTTTGTCAACTCGGAGTCACCTAGTGCAG,9600 fluorescence intensity (a.u.)

row,Sequence,binding signal
1,CGACGAACAGACGCGCGCCTTCTTAATGCAATCACCATCACGGAGTCACCTAGTGCAG,8600 fluorescence intensity (a.u.)
2,GGCCGCTCACTAGCCTGCCGCTGCCGCTCTGGTTCTCCAACGGAGTCACCTAGTGCAG,8840 fluorescence intensity (a.u.)
3,ATCTACCATCCGACGCCCCGCAACCAAACCCGCCGCTGTACGGAGTCACCTAGTGCAG,9320 fluorescence intensity (a.u.)
4,CGTCGACCCGTTTTCTCTCCTCTTCTCGATCGTTATATCGCGGAGTCACCTAGTGCAG,8290 fluorescence intensity (a.u.)
5,TCGCACGTGCTGATCTCCGGCGCCACCACCTACCGCCATTCGGAGTCACCTAGTGCAG,8180 fluorescence intensity (a.u.)
6,CTTACATGTGGTCCTCATGAGGCAATGCATCTTGGACACCCGGAGTCACCTAGTGCAG,9820 fluorescence intensity (a.u.)
7,AAACTTCACACGTTGTAATGCACAGACATTTTTTCTAGTCCGGAGTCACCTAGTGCAG,10100 fluorescence intensity (a.u.)
8,ACCACCATCACTAGCTCTCGTAAAAAATCTCAACTTTTTGCGGAGTCACCTAGTGCAG,8470 fluorescence intensity (a.u.)
9,TTCTGTTTGGGTTTTGATTTGTTTCGGTTTGGCTGTTCTTCGGAGTCACCTAGTGCAG,10600 fluorescence intensity (a.u.)
10,GGCACCGTGCTCTGGCTGACCACTTCGCGCCGCCGCCCTCCGGAGTCACCTAGTGCAG,9900 fluorescence intensity (a.u.)
11,CGCTTCTCCGCTTTTCGGGCTGTCGTGGATGCTGTCGGGGCGGAGTCACCTAGTGCAG,9480 fluorescence intensity (a.u.)
12,GCCTACATGCCCCATTTTCAATCTCTTTCGATACCATACTCGGAGTCACCTAGTGCAG,8930 fluorescence intensity (a.u.)
13,ACCCGAGATCTGATTCACTACCGCCGCCGGATCAAGCCACCGGAGTCACCTAGTGCAG,8320 fluorescence intensity (a.u.)
14,CAGATTTTTGCCGCCCATACCCTCGATTCCTCGTGATCTCCGGAGTCACCTAGTGCAG,9730 fluorescence intensity (a.u.)
15,TGTCCTGTCCATTGCTACTCCTTGTATTACACTACATAATCGGAGTCACCTAGTGCAG,9380 fluorescence intensity (a.u.)
16,CCTTACACTAACAGAGAGCTCTTCTTCTTCTTCTTCTTCTCGGAGTCACCTAGTGCAG,9040 fluorescence intensity (a.u.)
17,GATCTCTTGCAGCTGCGCATCTGTGCATGCATCCACACTACGGAGTCACCTAGTGCAG,9260 fluorescence intensity (a.u.)
18,ACCTCCACCGCGCCGCCGCCGCCGCTCCAGAGTCCAACGCCGGAGTCACCTAGTGCAG,8700 fluorescence intensity (a.u.)
19,ACTTTGTTATTGGTAATTTTCCTTGTGATTTGCTGGAAGTCGGAGTCACCTAGTGCAG,8620 fluorescence intensity (a.u.)
20,ACACTACCTTAAAGAAACATCAGTGACATCTCCATCACTCCGGAGTCACCTAGTGCAG,8750 fluorescence intensity (a.u.)
21,TCCGCCTTTTACCACCCCATTATTCAAACGAACCTCGAAACGGAGTCACCTAGTGCAG,8350 fluorescence intensity (a.u.)

row,Sequence,binding signal
1,GGTATTGTTGATACTTTCAGTTTTCGCATTTGTTCGCTTCCGGAGTCACCTAGTGCAG,9230 fluorescence intensity (a.u.)
2,TGGCTGCTCAGGGGCGGCGTTGGCGCGAGATGCGGAGGGGCGGAGTCACCTAGTGCAG,10100 fluorescence intensity (a.u.)
3,ACACGCTCTCGAATCGAACCTTATCACTCTTGTCATAAATCGGAGTCACCTAGTGCAG,8310 fluorescence intensity (a.u.)
4,CGTCTTTTGACATATGGCGCACGCACCTCTCCTCGCTTTTCGGAGTCACCTAGTGCAG,9130 fluorescence intensity (a.u.)
5,TAGTACACTACAGGCTACTACTACTACTACTACTACACCACGGAGTCACCTAGTGCAG,8250 fluorescence intensity (a.u.)
6,CTTTCGATTCCAAATTTCTCAGCTATTTCACGCATGCCCTCGGAGTCACCTAGTGCAG,9210 fluorescence intensity (a.u.)
7,CTTTTTTCTATTCCTATCTTTTTTTCTATTCCATTGTTTTCGGAGTCACCTAGTGCAG,10000 fluorescence intensity (a.u.)
8,TGCAACTATGATTATCCGTATCCAACTTTGATTTTCCGTTCGGAGTCACCTAGTGCAG,8860 fluorescence intensity (a.u.)
9,CGGGCTTCTTGATTTGCGGATTGTTGTTGTGGATCGCCAGCGGAGTCACCTAGTGCAG,8330 fluorescence intensity (a.u.)
10,ATCTGAAACTGTGTTGGTTGAACTAGCTGCTCTTCTATTTCGGAGTCACCTAGTGCAG,8650 fluorescence intensity (a.u.)
11,CGCCGCCGCTCGCCGACGTCGCCGCCATCGCCATTACAGCCGGAGTCACCTAGTGCAG,8980 fluorescence intensity (a.u.)
12,TTGGGCGGAGGAGTTCTGGGGTGGCATCGAAGGTGTGGGACGGAGTCACCTAGTGCAG,10500 fluorescence intensity (a.u.)
13,CCCTGCCTCATGGGCCCCACCTGCCATTAACTTTTTCGTTCGGAGTCACCTAGTGCAG,9190 fluorescence intensity (a.u.)
14,AGCTCAATTTAGTCTTTCAGGTTTTATTTTGTCCACGTAGCGGAGTCACCTAGTGCAG,9650 fluorescence intensity (a.u.)
15,AACCCTGACAATTTCCTTAGCGGTTTTGAGAGTGTTTTTCCGGAGTCACCTAGTGCAG,9910 fluorescence intensity (a.u.)
16,TATAAATACACCTCGCCCGCGCCTTAACTCGCATCATCAACGGAGTCACCTAGTGCAG,9140 fluorescence intensity (a.u.)
17,TTCCAACTTTCCCCAAACTTTCAACTTTCTGTAGGAACTACGGAGTCACCTAGTGCAG,8940 fluorescence intensity (a.u.)
18,GAGCTCCGCGTTCCACTCCATGTCCTCGATCTCCACCTCGCGGAGTCACCTAGTGCAG,9900 fluorescence intensity (a.u.)
19,CCGATTCCCTGCCGCATCTGCCCGTTGCCCTCGCGCCCGGCGGAGTCACCTAGTGCAG,8880 fluorescence intensity (a.u.)
20,CTCTCCATGCATCTCACCTCCACAGCGACCCACCACCCTTCGGAGTCACCTAGTGCAG,9380 fluorescence intensity (a.u.)
21,TGCAACTCAAAACTCACTCGATCGATCGCTTACAAGCTACCGGAGTCACCTAGTGCAG,8750 fluorescence intensity (a.u.)

row,Sequence,binding signal
1,CTTGTGTGTTTCCATTCTCGCGAACCTTCCACACACAGACCGGAGTCACCTAGTGCAG,11700 fluorescence intensity (a.u.)
2,GCGTTACTTCTCTCTGAGTCATTTGAGCCTTGTGAGTATTCGGAGTCACCTAGTGCAG,8220 fluorescence intensity (a.u.)
3,CGCCACCTCCCCTCCGCAAACCAGCGGGCGTCGCCGCTTCCGGAGTCACCTAGTGCAG,8320 fluorescence intensity (a.u.)
4,GCAGCTCACACACAACCTCTTCAATACTCTCACTGCAATTCGGAGTCACCTAGTGCAG,10700 fluorescence intensity (a.u.)
5,ATTTAATTTCACCTACTACTACTACTATTCTTCTTATTAACGGAGTCACCTAGTGCAG,9430 fluorescence intensity (a.u.)
6,ATCCCTAGGTCTATAGCAGCGCTCCTCTTCATATCCTCATCGGAGTCACCTAGTGCAG,8060 fluorescence intensity (a.u.)
7,AAATCATCCATCCATCCTCTACGTTCCCGATCCACCGATGCGGAGTCACCTAGTGCAG,8180 fluorescence intensity (a.u.)
8,TCCTCTCTCTCCTCTGATCTCTCCATCAGGTCTAATTTTTCGGAGTCACCTAGTGCAG,12900 fluorescence intensity (a.u.)
9,CCCTCGTGCCTATATGTAAGTAACCACGTTTCCGTGAAGTCGGAGTCACCTAGTGCAG,9950 fluorescence intensity (a.u.)
10,CCCAATTGTTATCCTACTTCAGACACTGATTCTAAATTCACGGAGTCACCTAGTGCAG,10300 fluorescence intensity (a.u.)
11,CCCCACCCCTCATTCACTCTCCACCGCACCGCACCGCACCCGGAGTCACCTAGTGCAG,8860 fluorescence intensity (a.u.)
12,GCCGCCCGACCTCCTCTCCCACCTCGCGCCCGCCGGCCGGCGGAGTCACCTAGTGCAG,8410 fluorescence intensity (a.u.)
13,TACTGATTTTCTTTATGTCTCTTTGTGGTCCCTTTGCAGTCGGAGTCACCTAGTGCAG,13400 fluorescence intensity (a.u.)
14,CATCATCTCTATCATCATTTCTCATCCATCACTTTCTTTGCGGAGTCACCTAGTGCAG,11600 fluorescence intensity (a.u.)
15,TGGTGATTGTCTTATATTTTGGGATAGATGAGATATTTATCGGAGTCACCTAGTGCAG,8290 fluorescence intensity (a.u.)
16,ACATTATTGTCATTGTCCTAGTAAATTATATATTTCATCGCGGAGTCACCTAGTGCAG,8130 fluorescence intensity (a.u.)
17,GGCTTACGAGTTCTAACAACGTCATTTTGGACTCACCTTTCGGAGTCACCTAGTGCAG,9200 fluorescence intensity (a.u.)
18,ACCTTTCCATCACTACAGTGTTTTGCTACAGTGCTCGGATCGGAGTCACCTAGTGCAG,10200 fluorescence intensity (a.u.)
19,CATATCCCGGCCAAGTTACGATCTTACTGTCTTTCCTTATCGGAGTCACCTAGTGCAG,12300 fluorescence intensity (a.u.)
20,TTTCGAAATGTTTGACACTGTTGACTTTTTAGCACATGTTCGGAGTCACCTAGTGCAG,14200 fluorescence intensity (a.u.)
21,CATCTATCTTCATTCTTCATCTCTTTCGATGGAAAGACCGCGGAGTCACCTAGTGCAG,8890 fluorescence intensity (a.u.)

# Quoted at random: two entries already listed, in no set order.
row,Sequence,binding signal
18,ACCTTTCCATCACTACAGTGTTTTGCTACAGTGCTCGGATCGGAGTCACCTAGTGCAG,10200 fluorescence intensity (a.u.)
16,ACATTATTGTCATTGTCCTAGTAAATTATATATTTCATCGCGGAGTCACCTAGTGCAG,8130 fluorescence intensity (a.u.)

# An excerpt from the list above, as a working copy:
row,Sequence,binding signal
20,CTCTCCATGCATCTCACCTCCACAGCGACCCACCACCCTTCGGAGTCACCTAGTGCAG,9380 fluorescence intensity (a.u.)
21,TGCAACTCAAAACTCACTCGATCGATCGCTTACAAGCTACCGGAGTCACCTAGTGCAG,8750 fluorescence intensity (a.u.)
